## Assay results

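Luminescence from an EWS-FLI1 target-promoter (NR0B1) reporter, set against a CMV-promoter reporter, two days after silencing single genes in TC32 Ewing sarcoma cells.
Each siRNA was applied at 20 nM.
A z-score of the log NR0B1-over-CMV signal, less the median of siRNAs with the same seed; more negative means a stronger specific loss of the NR0B1 reporter.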

The strongest results of the screen are mostly left out here.
Sequences are the guide (antisense) strand, without overhang.

{"strand": "UCCGGAUCUCCAUUGAUGG", "target gene": "ADAMTS4", "seed-corrected z-score": "-1.038"}
{"strand": "ACAUUUACCCAUAUGGUGG", "target gene": "XAF1", "seed-corrected z-score": "0.3286"}
{"strand": "UAGGGUGUGAUUUAUUCUG", "target gene": "INSL3", "seed-corrected z-score": "0.1988"}
{"strand": "UUCUCAAACACCUUGACCA", "target gene": "AKAP17A", "seed-corrected z-score": "0.114"}
{"strand": "UCUGUAGCCCAGAUUAUCG", "target gene": "ADD1", "seed-corrected z-score": "0.2865"}
{"strand": "UGAAUGGUGAUGCAUAUGA", "target gene": "OR5B21", "seed-corrected z-score": "0.9158"}
{"strand": "AAGAGUUUUGGUUAUCUCC", "target gene": "LEKR1", "seed-corrected z-score": "0.3118"}
{"strand": "AUCCUGAUAGAAGCAGGGC", "target gene": "SCAMP2", "seed-corrected z-score": "0.2257"}
{"strand": "UAUGCUUCUAUGUAAAUUG", "target gene": "MIR663AHG", "seed-corrected z-score": "0.423"}
{"strand": "UUUAGUUGUAUUGUCUCUG", "target gene": "PIEZO2", "seed-corrected z-score": "0.2123"}
{"strand": "UUGCUAAGUAACACGAUGG", "target gene": "ZNF280A", "seed-corrected z-score": "-0.6882"}
{"strand": "UAAGGUCACAAGAGAGUUC", "target gene": "IL22RA2", "seed-corrected z-score": "1.064"}
{"strand": "UGAGGAUGAAGAGCGCAGC", "target gene": "C16orf54", "seed-corrected z-score": "-0.307"}
{"strand": "UUCCUGUCGAAGCAAUUUC", "target gene": "PSTK", "seed-corrected z-score": "2.039"}
{"strand": "UCUGUGAAGCGAGCGGUUG", "target gene": "LOC728073", "seed-corrected z-score": "1.171"}
{"strand": "UUUCAAUUUGGAGAGCUUC", "target gene": "APAF1", "seed-corrected z-score": "0.8245"}
{"strand": "UACGUUCCAAGCGAAACUC", "target gene": "MYPN", "seed-corrected z-score": "-0.2883"}
{"strand": "UACUCUGACAGUUUCUCUC", "target gene": "RNF185", "seed-corrected z-score": "-0.5141"}
{"strand": "AUGGGUUAGAUUGAGGGAC", "target gene": "GID4", "seed-corrected z-score": "0.1585"}
{"strand": "UUACAUAAAUCUGGGUUCC", "target gene": "CTLA4", "seed-corrected z-score": "0.2572"}
{"strand": "UUUGUCUUCAUCGUGAUCC", "target gene": "CTSL3P", "seed-corrected z-score": "-0.9149"}
{"strand": "UGAUAGCUAAAGCAAGUGC", "target gene": "PSMA4", "seed-corrected z-score": "-0.05006"}
{"strand": "UUAGCAUGAGUCAUAGACC", "target gene": "ANLN", "seed-corrected z-score": "1.025"}
{"strand": "UUUGUUCUCCUCGACAGGC", "target gene": "CASP14", "seed-corrected z-score": "-0.214"}
{"strand": "UAGGUAAGAAACAAGUGUC", "target gene": "MTERF3", "seed-corrected z-score": "0.2267"}
{"strand": "UAAGUUAUGAUAUAAUUGC", "target gene": "FOXE1", "seed-corrected z-score": "0.3216"}
{"strand": "UUGAGUGACAGGUUCAUCU", "target gene": "DUSP7", "seed-corrected z-score": "-0.6065"}
{"strand": "UGGACUUCCAAUCAAACUG", "target gene": "WSB2", "seed-corrected z-score": "1.352"}
{"strand": "AAAGGUCCCAUCAAAGGUG", "target gene": "PLXNB1", "seed-corrected z-score": "1.321"}
{"strand": "UUUGUAGCAAGUAAGGUGG", "target gene": "BLZF1", "seed-corrected z-score": "-1.84"}
{"strand": "AAUACUACUAUUCAUCAUC", "target gene": "DLG1", "seed-corrected z-score": "0.1838"}
{"strand": "UGUGCUUUGAGGUAUCACA", "target gene": "NARF", "seed-corrected z-score": "-0.3972"}
{"strand": "UUUGGAUCUUCUUAGACAC", "target gene": "TEX2", "seed-corrected z-score": "-1.057"}
{"strand": "UCCUCGUCCAUAAAACUCC", "target gene": "NENF", "seed-corrected z-score": "-0.5973"}
{"strand": "UGGACAUCGAUCACCACUU", "target gene": "POLR2J4", "seed-corrected z-score": "0.1595"}
{"strand": "UCAUGAGCAGCUAUAUUCU", "target gene": "PHF11", "seed-corrected z-score": "0.933"}
{"strand": "AUAGUAGCGAGCUAUUUCC", "target gene": "OSGIN2", "seed-corrected z-score": "0.1592"}
{"strand": "AAAAGACUCAAUAGGAUGG", "target gene": "LOC650181", "seed-corrected z-score": "0.2784"}
{"strand": "UAAACUAUGAGGAAGACCA", "target gene": "OR5AR1", "seed-corrected z-score": "0.5614"}
{"strand": "AAUCUGUUUCAUGAGCUCC", "target gene": "CEP63", "seed-corrected z-score": "-0.1655"}
{"strand": "UAUCCUCACAUCCAAUUUC", "target gene": "MLH1", "seed-corrected z-score": "-0.6218"}
{"strand": "UCUUGGACGAUGUAGACAG", "target gene": "EFNB1", "seed-corrected z-score": "0.2453"}
{"strand": "UCUCGCAAUGGAAGCAUGC", "target gene": "LASP1", "seed-corrected z-score": "0.3715"}
{"strand": "UUAGGGUCAAUUGUUUUGG", "target gene": "MSI1", "seed-corrected z-score": "-0.2276"}
{"strand": "UCUAUAUCUAGACCUUUAC", "target gene": "CEP350", "seed-corrected z-score": "-0.164"}
{"strand": "AUAUUGACCCAUAAUAGAG", "target gene": "OR1J2", "seed-corrected z-score": "0.1146"}
{"strand": "UCAGGGUUAAAGAGGACGA", "target gene": "RXRA", "seed-corrected z-score": "0.5378"}
{"strand": "AUCGCGGUAAGCAGUUUGC", "target gene": "RCC2P7", "seed-corrected z-score": "-0.7138"}
{"strand": "AUUAUAUUCAAGUCGGCUU", "target gene": "MYBBP1A", "seed-corrected z-score": "-0.0632"}
{"strand": "UAAAUAAGAUGCCUGAUUC", "target gene": "NYAP1", "seed-corrected z-score": "0.4251"}
{"strand": "UUUAAUGACUGCUUGAAGC", "target gene": "KATNBL1", "seed-corrected z-score": "-0.3301"}

Source: PubChem BioAssay AID1159506 (NCATS, 2015).